Results as given in US10376586B2, “Method and compositions for solubilizing non-polar constituents” (Entourage Bioscience, LLC, priority 2016, dated 2019).
Some results were stated once for a whole list of compounds, not compound by compound.

Assay: solubility / solubilization in the MCT carrier oil
Conditions: admixing without solvent aid
Description: The process for solubilizing target compounds according to the disclosure comprises, in particular, the following steps: (a) preparation of a carrier liquid solution comprising a mixture of medium-chain triglycerides, an amount of this carrier liquid solution is used, the amount depending on the amount of target compound to be solubilized; (b) admixing the carrier liquid solution with the target compound; (c) and, optionally, admixing a stabilizing compound to the carrier liquid/target compound. In some cases, depending on the compound to be solubilized, solvents that dissolve both polar and non-polar compounds such as ethanol, methanol, acetonitrile, 1-butanol or isopropyl alcohol, may be added to encourage solubilization, and then removed by vacuum evaporation. As another aspect, during compounding, dry inert gas may be filtered through the mixture to remove moisture.
Riboflavin is known to have poor solubility in aqueous solutions and organic solvents. […] It may be desirable to solubilize a higher concentration of riboflavin in an ENDS. […] This mixture may then be added to MCTs (for example 0.0-6.0% C6, 6.0-60% C8, and/or 6.0-60% C10), homogenized for 5 minutes and subsequently heated to approximately 85 degrees Celsius at 250 mb (or 250 hPa) pressure in a rotary evaporator to drive off the methanol.
Another example may be sulbutiamine. […]

tocotrienol
quantity incorporated into the carrier oil by admixing: < 2 mg/mL
